# In PMC7819943, “Rice protein-binding microarrays: a tool to detect cis-acting elements near promoter regions in rice”:
# The chains behind the UniProt entries cited, without tags or fusion partners.
# UniProt Q0JBA9, entry or part of it: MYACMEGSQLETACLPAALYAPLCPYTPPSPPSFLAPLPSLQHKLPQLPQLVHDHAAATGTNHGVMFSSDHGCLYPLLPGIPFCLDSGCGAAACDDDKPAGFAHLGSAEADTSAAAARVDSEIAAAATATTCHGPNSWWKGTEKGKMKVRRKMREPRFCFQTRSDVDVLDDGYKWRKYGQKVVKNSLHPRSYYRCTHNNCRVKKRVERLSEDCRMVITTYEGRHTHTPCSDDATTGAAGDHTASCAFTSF
# The other results are listed elsewhere or left out.
# Target: OsWRKY34 (Oryza sativa, UniProt Q0JBA9 1-250)
# Assay: protein-binding microarray (RPBM); PBS, 2% BSA, 51.3 ng/ul salmon testes DNA, 50 uM zinc acetate, 200 nM TF, 25 C, 1 h; high values mean tight binding
# Details: protein: recombinant; tags: N-terminal polyhistidine and DsRed monomer fusion (pET32a); label: CyDye5-dUTP incorporated in the synthesized complementary strand; 3' TTTTT single-stranded linker to array surface; dsDNA, one strand shown
# Summary of the method: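 Binding signal here means per-feature fluorescence intensity in arbitrary units. The values were read on an Axon 4000B scanner after a custom Agilent array, double-stranded by primer extension with Cy5-dUTP, was incubated with 200 nM protein at 25 °C for 1 h in PBS with 2% BSA, salmon testes DNA and 50 µM zinc acetate, then washed. The proteins were transcription factors with an N-terminal polyhistidine tag and DsRed, expressed in E. coli BL21-CodonPlus and purified on Ni–NTA.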
row,Sequence,binding signal
1,ATTATTATATCATATACTCTAATAGACTTGCTCTCGTTTTCGGAGTCACCTAGTGCAG,10100 fluorescence intensity (a.u.)
2,TTTCATGGTATGTGCCCCTCCGCTTATACACGTTGTAGTACGGAGTCACCTAGTGCAG,8510 fluorescence intensity (a.u.)
3,AAGCATGCCTGACATTTTCATTGGTCTGTTTGGTTCAAGTCGGAGTCACCTAGTGCAG,8810 fluorescence intensity (a.u.)
4,TCAGAGCCGTTCAACCCCACGCGTGGACACAATCTGACCACGGAGTCACCTAGTGCAG,8450 fluorescence intensity (a.u.)
5,GTAGCAAATTTAGGAGCAGTATGTAGGGGCTTATAGTACTCGGAGTCACCTAGTGCAG,8450 fluorescence intensity (a.u.)
6,GCGGCCAAATTCCCACCGAACTGAACCTCTTCCTTTTTTTCGGAGTCACCTAGTGCAG,10300 fluorescence intensity (a.u.)
7,CACAGTTGATGCTCATCACTTTCGCCTGCACTTGCACATACGGAGTCACCTAGTGCAG,10200 fluorescence intensity (a.u.)
8,CCATTTATAGGTGTGTGAGGTGTGGTGTGCATGTGTATTTCGGAGTCACCTAGTGCAG,8960 fluorescence intensity (a.u.)
9,TTCCTGCTGTTTCGGATCCTATTTAGTATCTTATTTAGATCGGAGTCACCTAGTGCAG,8080 fluorescence intensity (a.u.)
10,CTTCCTCATTGTTTTCCTAACCCTTTATCCATTTTGCTATCGGAGTCACCTAGTGCAG,8280 fluorescence intensity (a.u.)
11,TTTATAAAGAGTTTGCAAGTTTTTTTTTTTACATGTATCACGGAGTCACCTAGTGCAG,9080 fluorescence intensity (a.u.)
12,ATCAGCAGCGATTTTTTTTTCAGTTTTTGTTTTTTCATTTCGGAGTCACCTAGTGCAG,11200 fluorescence intensity (a.u.)
13,GCGTTGTGGGTGTCTTGTGTTGTACTGCGTAATTCTTAAACGGAGTCACCTAGTGCAG,15000 fluorescence intensity (a.u.)
14,TCCGGCGGCATCTCCACCGGCCAACACCTGCAGCGCCGCCCGGAGTCACCTAGTGCAG,8740 fluorescence intensity (a.u.)
15,ACAACTTACAGTACACCGGCTATCTCGTACTAAAACCGCTCGGAGTCACCTAGTGCAG,10800 fluorescence intensity (a.u.)
16,ATAATGCTCTCTCCTACTCATCCTTTCCGGACTGCTCGGACGGAGTCACCTAGTGCAG,8780 fluorescence intensity (a.u.)
17,GATTTGCCTTGTTGCATTCCGCATGGAGCCTAACATATTTCGGAGTCACCTAGTGCAG,9470 fluorescence intensity (a.u.)
18,TGGTTGGTGGTATAGATAGTAGGTATGAGTATTTTCTTTCCGGAGTCACCTAGTGCAG,13100 fluorescence intensity (a.u.)
19,TAGGTGTCTAGTCCCGACTGATTTTCGTTTCTTATAGCGTCGGAGTCACCTAGTGCAG,8040 fluorescence intensity (a.u.)
20,TTACTTCACCCTGTTGCTTCGGTGGACTTTCTGGTGATCTCGGAGTCACCTAGTGCAG,12200 fluorescence intensity (a.u.)
21,CTCATAAGCGTCAAGTTTTTTTCCCCTACCTTTCTTGTTACGGAGTCACCTAGTGCAG,10900 fluorescence intensity (a.u.)

# Reprinted at random: five records from the list, in no set order.
row,Sequence,binding signal
7,CACAGTTGATGCTCATCACTTTCGCCTGCACTTGCACATACGGAGTCACCTAGTGCAG,10200 fluorescence intensity (a.u.)
13,GCGTTGTGGGTGTCTTGTGTTGTACTGCGTAATTCTTAAACGGAGTCACCTAGTGCAG,15000 fluorescence intensity (a.u.)
20,TTACTTCACCCTGTTGCTTCGGTGGACTTTCTGGTGATCTCGGAGTCACCTAGTGCAG,12200 fluorescence intensity (a.u.)
17,GATTTGCCTTGTTGCATTCCGCATGGAGCCTAACATATTTCGGAGTCACCTAGTGCAG,9470 fluorescence intensity (a.u.)
4,TCAGAGCCGTTCAACCCCACGCGTGGACACAATCTGACCACGGAGTCACCTAGTGCAG,8450 fluorescence intensity (a.u.)

# (next part)

row,Sequence,binding signal
1,ATCCACCATCCATCCACGTCGCGACGCGTCCAACTCCATCCGGAGTCACCTAGTGCAG,9260 fluorescence intensity (a.u.)
2,GGGGACAATTGGAATTCTATTTTTCTTTTGCCATGGTTTACGGAGTCACCTAGTGCAG,10600 fluorescence intensity (a.u.)
3,GTGGTGAATGGGTTGTCAATTTATTTTTTTACATGGATTTCGGAGTCACCTAGTGCAG,10500 fluorescence intensity (a.u.)
4,AGAGTTTTCTTCTTGTTTCTCATGTTTGACTGGTGCCTGACGGAGTCACCTAGTGCAG,9880 fluorescence intensity (a.u.)
5,TCCTTTTTGTTTTTCTTCGGGTCAACCCAGGCTCAGATCTCGGAGTCACCTAGTGCAG,9300 fluorescence intensity (a.u.)
6,CATGAGTTGACCACTACAGTGCTCTGATCAACTCGCTATACGGAGTCACCTAGTGCAG,8250 fluorescence intensity (a.u.)
7,CAATCAGTTCGTTCTTGCACCTACTGCACTAGCTTTCTCCCGGAGTCACCTAGTGCAG,8660 fluorescence intensity (a.u.)
8,GATGAAATGCCCTTATTGTTCTTAGTCTCTTTTTTTTTTTCGGAGTCACCTAGTGCAG,9370 fluorescence intensity (a.u.)
9,CTCTGCTGCCGCCACTGTTGCCCATCTCCTTCTTATCGCTCGGAGTCACCTAGTGCAG,14900 fluorescence intensity (a.u.)
10,CCTCCTGGATACACTCCTCGCCGATGCCCCGCAGCAACTCCGGAGTCACCTAGTGCAG,8810 fluorescence intensity (a.u.)
11,GGCGTCTCTTCAGCTGGTGGTTCTTGCACCGGTGGTTCTACGGAGTCACCTAGTGCAG,8370 fluorescence intensity (a.u.)
12,GCCTCGCCCTCGCGTCGTCACCTCTCGCCATGGCCCACTACGGAGTCACCTAGTGCAG,9950 fluorescence intensity (a.u.)
13,ACCTGGTATGTAATTCGCTCTGCTTTTTCATGGTGTAGTGCGGAGTCACCTAGTGCAG,8140 fluorescence intensity (a.u.)
14,ACATGAGGTCATAGGTTTAACTGTCTGACTTCTCTATTTTCGGAGTCACCTAGTGCAG,8370 fluorescence intensity (a.u.)
15,GCTACTTTTTTCAAACGCGTTCCGTTTCTTTTTTGTTTTTCGGAGTCACCTAGTGCAG,13200 fluorescence intensity (a.u.)
16,TTCATCATCAAATTCCCAATTTCTTCGGTCGCGACGCCGACGGAGTCACCTAGTGCAG,8040 fluorescence intensity (a.u.)
17,AATAGTTAATATGTCTGTTGTAACGGGATCCCATTTTATACGGAGTCACCTAGTGCAG,8800 fluorescence intensity (a.u.)
18,AAGGAGAGGAGTAGGGTGCGGGGACTAGGGTTACGACGGCCGGAGTCACCTAGTGCAG,8470 fluorescence intensity (a.u.)
19,TCGAATTTGGCCCATATTAGTTAGCGGTGCAGCACCGTTCCGGAGTCACCTAGTGCAG,8300 fluorescence intensity (a.u.)
20,GCATATCGGCGCTCCCCGACGACCTCATCCAGCGCATCCTCGGAGTCACCTAGTGCAG,10100 fluorescence intensity (a.u.)
21,CATTTCTTTACTACTACCATACCATCTCCCTGCGTGCGTTCGGAGTCACCTAGTGCAG,10800 fluorescence intensity (a.u.)

row,Sequence,binding signal
1,CCGACCCCGGCTTCCTCCGCCGCTTCCAATCCCGCCACCGCGGAGTCACCTAGTGCAG,11600 fluorescence intensity (a.u.)
2,CCTCATGCTCACTTTCATATAATATCTTCTTATTTTGAGTCGGAGTCACCTAGTGCAG,8120 fluorescence intensity (a.u.)
3,ACAACAACCACAGCTACCTCTGCTCACATGCCAATTGAATCGGAGTCACCTAGTGCAG,8580 fluorescence intensity (a.u.)
4,CCTTTGCTTCTCCTTTACTCTCTCTCTCTCTCTCTCTCTCCGGAGTCACCTAGTGCAG,8450 fluorescence intensity (a.u.)
5,ATCAACCCGCAGTCCTAGGCCCATATGTCAGTGTGTTTCTCGGAGTCACCTAGTGCAG,8540 fluorescence intensity (a.u.)
6,CCTTGTCTTCTCACCACCCATCATCAGGATCAGGTACTGCCGGAGTCACCTAGTGCAG,9710 fluorescence intensity (a.u.)
7,CGTCGCGTTGCGTTGACTCCACACTCCGGCCAGCAACATGCGGAGTCACCTAGTGCAG,10100 fluorescence intensity (a.u.)
8,ATAGTGTGTTTTTCTTTTCTCCATGTTGACAAATGTTCTACGGAGTCACCTAGTGCAG,10700 fluorescence intensity (a.u.)
9,TCATGTACTCCGTATTTCAGGACATCCAAGTTTTTTTTTTCGGAGTCACCTAGTGCAG,8280 fluorescence intensity (a.u.)
10,CAGCTCGACAGTCGGCAATACCACTGCCCAATCATTTTCACGGAGTCACCTAGTGCAG,8330 fluorescence intensity (a.u.)
11,CTTACCTGCTATACGATTTTTTTTCATGTATTTATATATTCGGAGTCACCTAGTGCAG,12500 fluorescence intensity (a.u.)
12,TGCAGCCCTTTTTTGTTACCAATGATGAACCTATTGAAACCGGAGTCACCTAGTGCAG,10900 fluorescence intensity (a.u.)
13,AAGGTCTCGCTCTCACTCACCGACGTCACCGTTCCTTTATCGGAGTCACCTAGTGCAG,10900 fluorescence intensity (a.u.)
14,TGAACTTGCTCTTTCACCTAATCCTCTTGCAGTTTTTCTACGGAGTCACCTAGTGCAG,11800 fluorescence intensity (a.u.)
15,GCAAGCCACTATCTCGACCAAAAATTTTGGTTTTTCTCAACGGAGTCACCTAGTGCAG,8110 fluorescence intensity (a.u.)
16,GGTGGTGGTGGTGGTGGTGGGGAAGAAGACCACACACATTCGGAGTCACCTAGTGCAG,9290 fluorescence intensity (a.u.)
17,TGTGCGGGCTCGTCTTCCTCGCCGCTCGCTCGCTCGCCTCCGGAGTCACCTAGTGCAG,8140 fluorescence intensity (a.u.)
18,GTGATTGATTCGATTGATTGCCGCATCCACAGTTCTTTTCCGGAGTCACCTAGTGCAG,10400 fluorescence intensity (a.u.)
19,TCGTACGACGCGCACATCCACCCGCCGCTTTAAACCGCGCCGGAGTCACCTAGTGCAG,8400 fluorescence intensity (a.u.)
20,GTGTCTAAGACCCTGTTTAGTTCTAATTTTTTTCCCAAAACGGAGTCACCTAGTGCAG,8340 fluorescence intensity (a.u.)
21,TGTATCTTATCTTTCATAATTTTTGTTCTAGGCTCGTCATCGGAGTCACCTAGTGCAG,8930 fluorescence intensity (a.u.)

row,Sequence,binding signal
1,GCTGTAGTTGCAGAAGCGCATGTATTACTTTTCATTTGAACGGAGTCACCTAGTGCAG,8690 fluorescence intensity (a.u.)
2,TATTTTTCACATAGCAGACGTAATATTCCTCCACCATTTTCGGAGTCACCTAGTGCAG,9490 fluorescence intensity (a.u.)
3,CGCCGCCGCCGCCGCCGCCGCTCACCGCAACGAGCATACTCGGAGTCACCTAGTGCAG,10300 fluorescence intensity (a.u.)
4,GCATTTTATTTTTGACACTTAAATGGAATTCTTGGTGGGGCGGAGTCACCTAGTGCAG,10000 fluorescence intensity (a.u.)
5,TTTTGTTTGCTTTGTTTGCTCTTCATCTAACGTAAAGGATCGGAGTCACCTAGTGCAG,9150 fluorescence intensity (a.u.)
6,CTCGTTTGCTTGTTTTGCCTGTTTAGGTGGTAATGATAATCGGAGTCACCTAGTGCAG,9050 fluorescence intensity (a.u.)
7,CTTTCTGATCACCAACTCCGCTCCTTTTAATCGCAACTACCGGAGTCACCTAGTGCAG,9660 fluorescence intensity (a.u.)
8,TTCCCCACGATGTGGGTAGTATGGATTTTTTTTTCTGTTTCGGAGTCACCTAGTGCAG,9350 fluorescence intensity (a.u.)
9,AGTTTTAAAATTTAAATTTTGGTTGGGTTGGCTGGTAAACCGGAGTCACCTAGTGCAG,9840 fluorescence intensity (a.u.)
10,TTTTGAAGTCAAAGTTTCTGTAGCATAGCTGTCATCGTGTCGGAGTCACCTAGTGCAG,8790 fluorescence intensity (a.u.)
11,TATGGCTAGCCAACGTGTATTTTTATAATTCCTTTTGTAGCGGAGTCACCTAGTGCAG,8380 fluorescence intensity (a.u.)
12,GGCACGGTGCTCTACGACAATGAGTTCGCCGCCCATCCACCGGAGTCACCTAGTGCAG,8640 fluorescence intensity (a.u.)
13,CCACCGATCAGTTTCTTCCATCCACCACGTCGCGGCCGCCCGGAGTCACCTAGTGCAG,13800 fluorescence intensity (a.u.)
14,TCCGCCTCCGCCGCGCCGGCCGCCGATCTCCATCTCCTCGCGGAGTCACCTAGTGCAG,8940 fluorescence intensity (a.u.)
15,ATCCCTTCGATTTTTACATGTCATCTAAATAGTTATTAATCGGAGTCACCTAGTGCAG,8410 fluorescence intensity (a.u.)
16,CTTGATTACCCCGTAGTCAGGTTTGTATGACTAAGCAACCCGGAGTCACCTAGTGCAG,8980 fluorescence intensity (a.u.)
17,CCCGCTGGTGCACTTCAACGCTACTCCTCTTCGCCGCCAACGGAGTCACCTAGTGCAG,9270 fluorescence intensity (a.u.)
18,TATGTTTGGTCTGTTTGTAGTGTTTGAGAATCCTACGTATCGGAGTCACCTAGTGCAG,9460 fluorescence intensity (a.u.)
19,AAATATGTGGGTTTTTTTATTGCAATGAAATATTTCAGTTCGGAGTCACCTAGTGCAG,8390 fluorescence intensity (a.u.)
20,ACCTTCGTTTTGTTCTAAGTTACTTCTATAATATATGTAACGGAGTCACCTAGTGCAG,10600 fluorescence intensity (a.u.)
21,GGATGTCTGTGTTCCTTCAATTTTGTTTTTCTGGTTGGGGCGGAGTCACCTAGTGCAG,12800 fluorescence intensity (a.u.)
